Measurements reported in article PMC12995475.
Results are given in words; binding and its absence hold for the method and conditions named. In cells and extracts the contact can be indirect. Some entries that bind do so weakly or less than the wild type.

Sequences of proteins named here, by UniProt entry; tags and fusion partners are left off.
UniProt P33993: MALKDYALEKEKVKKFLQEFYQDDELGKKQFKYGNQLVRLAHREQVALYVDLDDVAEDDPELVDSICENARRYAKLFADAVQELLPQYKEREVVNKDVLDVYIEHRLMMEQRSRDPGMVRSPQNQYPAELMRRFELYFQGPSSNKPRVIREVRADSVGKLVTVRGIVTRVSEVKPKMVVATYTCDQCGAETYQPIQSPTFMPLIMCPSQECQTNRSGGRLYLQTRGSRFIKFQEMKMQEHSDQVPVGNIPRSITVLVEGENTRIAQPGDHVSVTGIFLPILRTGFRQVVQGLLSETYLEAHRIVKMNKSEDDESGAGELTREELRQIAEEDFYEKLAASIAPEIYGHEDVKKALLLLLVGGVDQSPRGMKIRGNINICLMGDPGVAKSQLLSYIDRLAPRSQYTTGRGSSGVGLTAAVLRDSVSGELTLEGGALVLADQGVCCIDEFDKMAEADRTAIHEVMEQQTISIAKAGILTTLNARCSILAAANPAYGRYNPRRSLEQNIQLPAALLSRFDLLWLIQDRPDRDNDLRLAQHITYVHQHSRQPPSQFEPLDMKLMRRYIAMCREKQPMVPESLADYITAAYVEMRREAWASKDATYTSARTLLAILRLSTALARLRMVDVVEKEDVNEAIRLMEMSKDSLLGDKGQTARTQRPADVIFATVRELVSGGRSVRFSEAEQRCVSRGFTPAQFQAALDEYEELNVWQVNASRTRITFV
UniProt P49736: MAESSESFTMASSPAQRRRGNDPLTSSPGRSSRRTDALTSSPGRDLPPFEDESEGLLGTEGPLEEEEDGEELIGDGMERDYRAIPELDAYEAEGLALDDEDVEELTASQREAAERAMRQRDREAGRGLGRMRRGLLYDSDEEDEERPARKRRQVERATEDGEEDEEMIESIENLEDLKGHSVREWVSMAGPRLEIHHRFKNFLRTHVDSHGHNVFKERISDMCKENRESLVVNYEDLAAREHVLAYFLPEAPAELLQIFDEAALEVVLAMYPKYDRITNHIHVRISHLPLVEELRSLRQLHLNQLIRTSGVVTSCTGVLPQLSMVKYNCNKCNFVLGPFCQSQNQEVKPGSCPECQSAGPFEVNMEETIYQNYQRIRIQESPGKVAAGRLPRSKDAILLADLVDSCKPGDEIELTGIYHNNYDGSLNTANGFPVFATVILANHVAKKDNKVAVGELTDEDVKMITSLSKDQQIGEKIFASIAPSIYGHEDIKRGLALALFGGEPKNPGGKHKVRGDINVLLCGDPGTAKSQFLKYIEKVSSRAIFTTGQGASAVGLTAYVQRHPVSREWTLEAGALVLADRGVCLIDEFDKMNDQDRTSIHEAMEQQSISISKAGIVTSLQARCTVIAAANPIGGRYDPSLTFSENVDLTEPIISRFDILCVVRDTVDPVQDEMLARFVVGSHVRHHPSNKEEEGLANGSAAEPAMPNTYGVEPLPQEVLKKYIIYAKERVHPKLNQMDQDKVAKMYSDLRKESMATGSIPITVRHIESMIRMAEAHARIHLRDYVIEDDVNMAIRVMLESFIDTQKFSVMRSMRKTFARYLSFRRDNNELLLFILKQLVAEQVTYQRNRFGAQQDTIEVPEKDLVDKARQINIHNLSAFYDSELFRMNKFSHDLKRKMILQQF

T1: Ribonucleotide reductase M1 (regulatory subunit R1), endogenous (human (endogenous in H23, A549, HEK293)) (UniProt P23921)
T1 sequence: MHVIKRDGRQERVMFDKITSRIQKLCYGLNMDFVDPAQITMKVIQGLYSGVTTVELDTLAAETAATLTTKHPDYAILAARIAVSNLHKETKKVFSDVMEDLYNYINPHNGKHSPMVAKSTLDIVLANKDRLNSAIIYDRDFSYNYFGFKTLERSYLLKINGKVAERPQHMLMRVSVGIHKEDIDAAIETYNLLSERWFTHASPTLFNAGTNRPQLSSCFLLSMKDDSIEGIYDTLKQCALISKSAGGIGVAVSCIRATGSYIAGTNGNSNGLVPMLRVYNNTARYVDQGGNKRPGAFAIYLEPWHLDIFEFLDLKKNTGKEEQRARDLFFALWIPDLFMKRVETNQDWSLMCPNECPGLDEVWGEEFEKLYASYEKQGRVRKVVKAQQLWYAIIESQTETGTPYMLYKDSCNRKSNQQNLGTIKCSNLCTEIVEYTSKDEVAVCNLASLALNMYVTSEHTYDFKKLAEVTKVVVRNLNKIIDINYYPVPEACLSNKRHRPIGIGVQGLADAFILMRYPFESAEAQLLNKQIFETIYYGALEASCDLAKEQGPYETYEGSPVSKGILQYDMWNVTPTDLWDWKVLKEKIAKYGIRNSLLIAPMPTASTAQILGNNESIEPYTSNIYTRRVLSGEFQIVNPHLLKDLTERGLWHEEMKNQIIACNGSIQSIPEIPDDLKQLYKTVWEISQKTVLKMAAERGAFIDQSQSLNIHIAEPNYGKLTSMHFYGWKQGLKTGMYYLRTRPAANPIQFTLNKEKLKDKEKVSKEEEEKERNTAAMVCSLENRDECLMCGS

T2: p53R2 (human (endogenous in H23, A549, HEK293)) (UniProt Q7LG56)
T2 sequence: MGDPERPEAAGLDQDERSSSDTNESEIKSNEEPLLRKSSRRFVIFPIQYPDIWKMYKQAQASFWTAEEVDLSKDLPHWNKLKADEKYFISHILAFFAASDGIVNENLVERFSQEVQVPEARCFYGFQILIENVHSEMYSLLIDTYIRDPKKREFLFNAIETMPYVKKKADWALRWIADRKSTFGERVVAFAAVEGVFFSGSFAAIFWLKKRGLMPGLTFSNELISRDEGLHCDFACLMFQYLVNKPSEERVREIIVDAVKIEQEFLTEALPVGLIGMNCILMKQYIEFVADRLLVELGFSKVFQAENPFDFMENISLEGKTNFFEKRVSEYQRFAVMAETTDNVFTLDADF

T3: Ribonucleotide reductase catalytic subunit R2 (human (endogenous in H23, A549, HEK293)) (UniProt P31350)
T3 sequence: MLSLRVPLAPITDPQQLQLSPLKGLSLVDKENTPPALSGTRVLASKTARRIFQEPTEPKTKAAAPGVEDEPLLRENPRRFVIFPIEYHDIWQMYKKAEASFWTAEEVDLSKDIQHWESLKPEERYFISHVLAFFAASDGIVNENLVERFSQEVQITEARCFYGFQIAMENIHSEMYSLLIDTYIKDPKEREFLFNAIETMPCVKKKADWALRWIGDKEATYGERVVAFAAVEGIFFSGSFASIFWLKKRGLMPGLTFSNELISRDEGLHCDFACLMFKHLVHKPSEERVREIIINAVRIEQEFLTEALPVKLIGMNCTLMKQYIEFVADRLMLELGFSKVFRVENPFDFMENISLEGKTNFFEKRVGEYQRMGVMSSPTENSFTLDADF

T4: MCM4, endogenous (human (endogenous in H23, A549, HEK293)) (UniProt P33991)
T4 sequence: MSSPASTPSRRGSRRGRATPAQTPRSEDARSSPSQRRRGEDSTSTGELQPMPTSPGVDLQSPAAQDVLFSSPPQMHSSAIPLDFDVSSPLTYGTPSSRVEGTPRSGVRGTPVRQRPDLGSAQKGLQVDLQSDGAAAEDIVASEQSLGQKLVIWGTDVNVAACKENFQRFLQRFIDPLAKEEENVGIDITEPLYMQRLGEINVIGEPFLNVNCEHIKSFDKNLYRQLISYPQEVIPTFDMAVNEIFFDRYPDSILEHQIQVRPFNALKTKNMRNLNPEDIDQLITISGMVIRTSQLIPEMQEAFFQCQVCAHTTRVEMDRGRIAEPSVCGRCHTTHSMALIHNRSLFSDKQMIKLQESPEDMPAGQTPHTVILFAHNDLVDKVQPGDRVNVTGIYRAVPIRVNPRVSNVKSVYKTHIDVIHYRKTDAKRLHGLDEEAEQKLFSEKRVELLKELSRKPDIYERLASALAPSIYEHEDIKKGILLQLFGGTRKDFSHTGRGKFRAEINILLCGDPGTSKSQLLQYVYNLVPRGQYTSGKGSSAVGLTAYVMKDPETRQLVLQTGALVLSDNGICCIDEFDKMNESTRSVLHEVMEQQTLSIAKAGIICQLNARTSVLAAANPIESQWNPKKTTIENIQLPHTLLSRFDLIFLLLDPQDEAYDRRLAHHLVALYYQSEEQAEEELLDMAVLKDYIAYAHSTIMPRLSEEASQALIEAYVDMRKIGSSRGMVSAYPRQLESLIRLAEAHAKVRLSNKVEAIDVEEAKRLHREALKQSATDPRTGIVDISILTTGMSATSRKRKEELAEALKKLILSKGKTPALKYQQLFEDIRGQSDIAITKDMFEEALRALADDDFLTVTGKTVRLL

B1: Ribonucleotide reductase M1 (regulatory subunit R1), endogenous (protein, UniProt P23921 1-792)
chain: T1 sequence
B2: MCM3, endogenous (protein, UniProt P25205 1-808)
chain: MAGTVVLDDVELREAQRDYLDFLDDEEDQGIYQSKVRELISDNQYRLIVNVNDLRRKNEKRANRLLNNAFEELVAFQRALKDFVASIDATYAKQYEEFYVGLEGSFGSKHVSPRTLTSCFLSCVVCVEGIVTKCSLVRPKVVRSVHYCPATKKTIERRYSDLTTLVAFPSSSVYPTKDEENNPLETEYGLSVYKDHQTITIQEMPEKAPAGQLPRSVDVILDDDLVDKAKPGDRVQVVGTYRCLPGKKGGYTSGTFRTVLIACNVKQMSKDAQPSFSAEDIAKIKKFSKTRSKDIFDQLAKSLAPSIHGHDYVKKAILCLLLGGVERDLENGSHIRGDINILLIGDPSVAKSQLLRYVLCTAPRAIPTTGRGSSGVGLTAAVTTDQETGERRLEAGAMVLADRGVVCIDEFDKMSDMDRTAIHEVMEQGRVTIAKAGIHARLNARCSVLAAANPVYGRYDQYKTPMENIGLQDSLLSRFDLLFIMLDQMDPEQDREISDHVLRMHRYRAPGEQDGDAMPLGSAVDILATDDPNFSQEDQQDTQIYEKHDNLLHGTKKKKEKMVSAAFMKKYIHVAKIIKPVLTQESATYIAEEYSRLRSQDSMSSDTARTSPVTARTLETLIRLATAHAKARMSKTVDLQDAEEAVELVQYAYFKKVLEKEKKRKKRSEDESETEDEEEKSQEDQEQKRKRRKTRQPDAKDGDSYDPYDFSDTEEEMPQVHTPKTADSQETKESQKVELSESRLKAFKVALLDVFREAHAQSIGMNRLTESINRDSEEPFSSVEIQAALSKMQDDNQVMVSEGIIFLI
B3: MCM5, endogenous (protein, UniProt P33992 1-734)
chain: MSGFDDPGIFYSDSFGGDAQADEGQARKSQLQRRFKEFLRQYRVGTDRTGFTFKYRDELKRHYNLGEYWIEVEMEDLASFDEDLADYLYKQPAEHLQLLEEAAKEVADEVTRPRPSGEEVLQDIQVMLKSDASPSSIRSLKSDMMSHLVKIPGIIIAASAVRAKATRISIQCRSCRNTLTNIAMRPGLEGYALPRKCNTDQAGRPKCPLDPYFIMPDKCKCVDFQTLKLQELPDAVPHGEMPRHMQLYCDRYLCDKVVPGNRVTIMGIYSIKKFGLTTSRGRDRVGVGIRSSYIRVLGIQVDTDGSGRSFAGAVSPQEEEEFRRLAALPNVYEVISKSIAPSIFGGTDMKKAIACLLFGGSRKRLPDGLTRRGDINLLMLGDPGTAKSQLLKFVEKCSPIGVYTSGKGSSAAGLTASVMRDPSSRNFIMEGGAMVLADGGVVCIDEFDKMREDDRVAIHEAMEQQTISIAKAGITTTLNSRCSVLAAANSVFGRWDETKGEDNIDFMPTILSRFDMIFIVKDEHNEERDVMLAKHVITLHVSALTQTQAVEGEIDLAKLKKFIAYCRVKCGPRLSAEAAEKLKNRYIIMRSGARQHERDSDRRSSIPITVRQLEAIVRIAEALSKMKLQPFATEADVEEALRLFQVSTLDAALSGTLSGVEGFTSQEDQEMLSRIEKQLKRRFAIGSQVSEHSIIKDFTKQKYPEHAIHKVLQLMLRRGEIQHRMQRKVLYRLK
B4: MCM6, endogenous (protein, UniProt Q14566 1-821)
chain: MDLAAAAEPGAGSQHLEVRDEVAEKCQKLFLDFLEEFQSSDGEIKYLQLAEELIRPERNTLVVSFVDLEQFNQQLSTTIQEEFYRVYPYLCRALKTFVKDRKEIPLAKDFYVAFQDLPTRHKIRELTSSRIGLLTRISGQVVRTHPVHPELVSGTFLCLDCQTVIRDVEQQFKYTQPNICRNPVCANRRRFLLDTNKSRFVDFQKVRIQETQAELPRGSIPRSLEVILRAEAVESAQAGDKCDFTGTLIVVPDVSKLSTPGARAETNSRVSGVDGYETEGIRGLRALGVRDLSYRLVFLACCVAPTNPRFGGKELRDEEQTAESIKNQMTVKEWEKVFEMSQDKNLYHNLCTSLFPTIHGNDEVKRGVLLMLFGGVPKTTGEGTSLRGDINVCIVGDPSTAKSQFLKHVEEFSPRAVYTSGKASSAAGLTAAVVRDEESHEFVIEAGALMLADNGVCCIDEFDKMDVRDQVAIHEAMEQQTISITKAGVKATLNARTSILAAANPISGHYDRSKSLKQNINLSAPIMSRFDLFFILVDECNEVTDYAIARRIVDLHSRIEESIDRVYSLDDIRRYLLFARQFKPKISKESEDFIVEQYKHLRQRDGSGVTKSSWRITVRQLESMIRLSEAMARMHCCDEVQPKHVKEAFRLLNKSIIRVETPDVNLDQEEEIQMEVDEGAGGINGHADSPAPVNGINGYNEDINQESAPKASLRLGFSEYCRISNLIVLHLRKVEEEEDESALKRSELVNWYLKEIESEIDSEEELINKKRIIEKVIHRLTHYDHVLIELTQAGLKGSTEGSESYEEDPYLVVNPNYLLED

Tests used:
[1] = biological target: T1, Ribonucleotide reductase M1 (regulatory subunit R1), endogenous (human (endogenous in H23, A549, HEK293)); test: co-IP; endogenous R1 immunoprecipitated (antibodies to RRM1 or control IgG) from H23, A549 and HEK293 whole cell lysates, immunoblotted for MCM2-7; also done in doxycycline-inducible R2 overexpressing (OER2) and control (ORF) cells
[2] = biological target: T2, p53R2 (human (endogenous in H23, A549, HEK293)); test: co-IP; "the same technology" as the R1 immunoprecipitation, for R2 or p53R2 and the six MCMs
[3] = biological target: T3, Ribonucleotide reductase catalytic subunit R2 (human (endogenous in H23, A549, HEK293)); test: as above
[4] = biological target: MCM7, endogenous (human (endogenous in H23, A549, HEK293)) (UniProt P33993); test: co-IP; reverse immunoprecipitation of each catalytic MCM (4/6/7), R1 detected; MCM7 immunoprecipitation also done in R1 overexpressing (OER1) cells
[5] = biological target: T4, MCM4, endogenous (human (endogenous in H23, A549, HEK293)); test: as above

| Molecule | binding [1] | binding [2] | binding [3] | binding [4] | binding [5] |
| --- | --- | --- | --- | --- | --- |
| MCM2, endogenous (from UniProt P49736 1-904) | no binding | no binding | no binding | – | – |
| B1 | – | – | – | binds | binds |
| B2 | no binding | no binding | no binding | – | – |
| B3 | no binding | no binding | no binding | – | – |
| B4 | – | no binding | no binding | – | – |
